Reference: publication PMC3778836

By UniProt entry, the sequences of proteins in these tests, tags left out.
UniProt Q9BXW9: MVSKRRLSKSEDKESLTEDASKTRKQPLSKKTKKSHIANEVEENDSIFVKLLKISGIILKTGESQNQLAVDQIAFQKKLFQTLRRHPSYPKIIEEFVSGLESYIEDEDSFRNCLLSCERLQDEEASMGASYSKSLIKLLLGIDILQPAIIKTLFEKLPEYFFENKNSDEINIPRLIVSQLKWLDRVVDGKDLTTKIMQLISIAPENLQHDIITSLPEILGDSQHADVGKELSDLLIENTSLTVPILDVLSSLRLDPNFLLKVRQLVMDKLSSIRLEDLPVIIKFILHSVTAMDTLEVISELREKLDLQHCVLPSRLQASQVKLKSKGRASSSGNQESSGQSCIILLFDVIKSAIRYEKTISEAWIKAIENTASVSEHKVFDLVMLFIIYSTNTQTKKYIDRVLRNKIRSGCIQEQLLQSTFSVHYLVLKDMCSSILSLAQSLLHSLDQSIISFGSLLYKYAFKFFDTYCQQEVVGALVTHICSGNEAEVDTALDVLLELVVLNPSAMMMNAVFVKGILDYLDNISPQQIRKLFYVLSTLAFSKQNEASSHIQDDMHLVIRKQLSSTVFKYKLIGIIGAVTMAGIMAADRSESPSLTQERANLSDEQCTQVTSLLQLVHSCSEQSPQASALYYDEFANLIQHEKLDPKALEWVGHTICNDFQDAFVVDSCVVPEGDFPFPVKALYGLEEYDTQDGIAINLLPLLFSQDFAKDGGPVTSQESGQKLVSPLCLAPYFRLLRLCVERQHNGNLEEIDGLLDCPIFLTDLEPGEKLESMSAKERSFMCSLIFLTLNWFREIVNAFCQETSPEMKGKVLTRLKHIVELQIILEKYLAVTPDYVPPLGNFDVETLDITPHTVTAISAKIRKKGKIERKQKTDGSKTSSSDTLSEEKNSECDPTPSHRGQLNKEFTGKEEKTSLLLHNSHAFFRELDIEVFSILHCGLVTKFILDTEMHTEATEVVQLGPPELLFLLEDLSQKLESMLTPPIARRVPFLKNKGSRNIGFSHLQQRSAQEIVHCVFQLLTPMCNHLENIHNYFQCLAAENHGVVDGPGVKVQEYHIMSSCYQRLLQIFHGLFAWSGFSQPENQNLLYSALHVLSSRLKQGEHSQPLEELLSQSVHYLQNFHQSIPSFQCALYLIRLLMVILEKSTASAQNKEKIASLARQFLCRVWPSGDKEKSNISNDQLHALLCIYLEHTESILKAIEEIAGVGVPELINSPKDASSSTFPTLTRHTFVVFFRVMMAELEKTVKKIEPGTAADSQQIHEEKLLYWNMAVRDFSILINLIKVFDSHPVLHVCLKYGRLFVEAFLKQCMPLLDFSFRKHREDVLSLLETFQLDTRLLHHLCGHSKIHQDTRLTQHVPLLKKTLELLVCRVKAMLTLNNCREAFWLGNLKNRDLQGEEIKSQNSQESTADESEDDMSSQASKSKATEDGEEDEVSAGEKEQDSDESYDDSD

T1: FLAG-HA epitope-tagged XRCC2 (UniProt O43543)
T1 sequence: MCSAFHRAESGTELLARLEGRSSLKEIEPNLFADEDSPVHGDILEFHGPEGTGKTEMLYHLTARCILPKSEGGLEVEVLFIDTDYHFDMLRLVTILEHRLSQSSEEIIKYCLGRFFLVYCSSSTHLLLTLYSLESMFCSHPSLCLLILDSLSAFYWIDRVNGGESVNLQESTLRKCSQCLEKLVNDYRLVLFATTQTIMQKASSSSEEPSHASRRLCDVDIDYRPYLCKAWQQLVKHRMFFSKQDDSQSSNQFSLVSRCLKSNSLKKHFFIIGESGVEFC

T2: FLAG-HA epitope-tagged HELQ (human) (UniProt Q8TDG4)
T2 sequence: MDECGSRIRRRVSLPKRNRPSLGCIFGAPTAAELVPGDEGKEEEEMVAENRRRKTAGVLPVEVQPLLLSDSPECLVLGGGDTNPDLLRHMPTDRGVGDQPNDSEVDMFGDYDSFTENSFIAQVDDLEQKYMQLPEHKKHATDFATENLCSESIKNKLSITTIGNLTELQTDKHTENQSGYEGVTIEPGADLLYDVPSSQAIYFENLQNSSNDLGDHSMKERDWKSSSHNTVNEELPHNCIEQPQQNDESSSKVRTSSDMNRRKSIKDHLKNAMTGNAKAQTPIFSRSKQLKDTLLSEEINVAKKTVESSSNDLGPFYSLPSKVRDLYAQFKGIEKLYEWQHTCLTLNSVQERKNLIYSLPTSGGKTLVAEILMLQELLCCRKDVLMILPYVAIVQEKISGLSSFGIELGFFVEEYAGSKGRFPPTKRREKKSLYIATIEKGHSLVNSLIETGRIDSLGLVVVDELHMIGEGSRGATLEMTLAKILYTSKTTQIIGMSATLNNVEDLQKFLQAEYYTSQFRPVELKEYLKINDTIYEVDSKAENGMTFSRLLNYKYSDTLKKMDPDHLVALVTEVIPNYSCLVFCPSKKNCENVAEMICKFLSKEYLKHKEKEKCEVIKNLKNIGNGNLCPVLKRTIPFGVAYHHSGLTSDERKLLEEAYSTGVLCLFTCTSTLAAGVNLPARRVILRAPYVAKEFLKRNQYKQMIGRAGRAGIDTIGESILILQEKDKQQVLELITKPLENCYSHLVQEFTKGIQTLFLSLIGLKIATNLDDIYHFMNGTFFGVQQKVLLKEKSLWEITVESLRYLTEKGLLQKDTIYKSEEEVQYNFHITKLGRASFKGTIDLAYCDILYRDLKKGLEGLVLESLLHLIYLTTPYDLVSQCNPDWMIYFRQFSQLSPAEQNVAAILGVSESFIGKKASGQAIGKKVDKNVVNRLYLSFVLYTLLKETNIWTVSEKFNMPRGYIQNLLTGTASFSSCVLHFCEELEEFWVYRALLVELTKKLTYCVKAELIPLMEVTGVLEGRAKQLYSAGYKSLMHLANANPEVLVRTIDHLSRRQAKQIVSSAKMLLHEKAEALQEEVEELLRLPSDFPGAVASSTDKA

B1: DNA polymerase POLN (endogenous, HeLa S3) (enzyme, UniProt Q7Z5Q5 1-900)
chain: MENYEALVGFDLCNTPLSSVAQKIMSAMHSGDLVDSKTWGKSTETMEVINKSSVKYSVQLEDRKTQSPEKKDLKSLRSQTSRGSAKLSPQSFSVRLTDQLSADQKQKSISSLTLSSCLIPQYNQEASVLQKKGHKRKHFLMENINNENKGSINLKRKHITYNNLSEKTSKQMALEEDTDDAEGYLNSGNSGALKKHFCDIRHLDDWAKSQLIEMLKQAAALVITVMYTDGSTQLGADQTPVSSVRGIVVLVKRQAEGGHGCPDAPACGPVLEGFVSDDPCIYIQIEHSAIWDQEQEAHQQFARNVLFQTMKCKCPVICFNAKDFVRIVLQFFGNDGSWKHVADFIGLDPRIAAWLIDPSDATPSFEDLVEKYCEKSITVKVNSTYGNSSRNIVNQNVRENLKTLYRLTMDLCSKLKDYGLWQLFRTLELPLIPILAVMESHAIQVNKEEMEKTSALLGARLKELEQEAHFVAGERFLITSNNQLREILFGKLKLHLLSQRNSLPRTGLQKYPSTSEAVLNALRDLHPLPKIILEYRQVHKIKSTFVDGLLACMKKGSISSTWNQTGTVTGRLSAKHPNIQGISKHPIQITTPKNFKGKEDKILTISPRAMFVSSKGHTFLAADFSQIELRILTHLSGDPELLKLFQESERDDVFSTLTSQWKDVPVEQVTHADREQTKKVVYAVVYGAGKERLAACLGVPIQEAAQFLESFLQKYKKIKDFARAAIAQCHQTGCVVSIMGRRRPLPRIHAHDQQLRAQAERQAVNFVVQGSAADLCKLAMIHVFTAVAASHTLTARLVAQIHDELLFEVEDPQIPECAALVRRTMESLEQVQALELQLQVPLKVSLSAGRSWGHLVPLQEAWGPPPGPCRTESPSNSLAAPGSPASTQPPPLHFSPSFCL
B2: HELQ (endogenous, HeLa S3) (enzyme, UniProt Q8TDG4 1-1101)
chain: T2 sequence
B3: RAD51B (protein, UniProt O15315 1-384)
chain: MGSKKLKRVGLSQELCDRLSRHQILTCQDFLCLSPLELMKVTGLSYRGVHELLCMVSRACAPKMQTAYGIKAQRSADFSPAFLSTTLSALDEALHGGVACGSLTEITGPPGCGKTQFCIMMSILATLPTNMGGLEGAVVYIDTESAFSAERLVEIAESRFPRYFNTEEKLLLTSSKVHLYRELTCDEVLQRIESLEEEIISKGIKLVILDSVASVVRKEFDAQLQGNLKERNKFLAREASSLKYLAEEFSIPVILTNQITTHLSGALASQADLVSPADDLSLSEGTSGSSCVIAALGNTWSHSVNTRLILQYLDSERRQILIAKSPLAPFTSFVYTIKEEGLVLQETTFCSVTQAELNWAPEILPPQPPEQLGLQMCHHTQLIF
B4: XRCC2 (endogenous, HeLa S3) (protein, UniProt O43543 1-280)
chain: T1 sequence
B5: XRCC3 (protein, UniProt O43542 1-346)
chain: MDLDLLDLNPRIIAAIKKAKLKSVKEVLHFSGPDLKRLTNLSSPEVWHLLRTASLHLRGSSILTALQLHQQKERFPTQHQRLSLGCPVLDALLRGGLPLDGITELAGRSSAGKTQLALQLCLAVQFPRQHGGLEAGAVYICTEDAFPHKRLQQLMAQQPRLRTDVPGELLQKLRFGSQIFIEHVADVDTLLECVNKKVPVLLSRGMARLVVIDSVAAPFRCEFDSQASAPRARHLQSLGATLRELSSAFQSPVLCINQVTEAMEEQGAAHGPLGFWDERVSPALGITWANQLLVRLLADRLREEEAALGCPARTLRVLSAPHLPPSSCSYTISAEGVRGTPGTQSH
B6: ATRIP (protein, UniProt Q8WXE1 1-791)
chain: MAGTSAPGSKRRSEPPAPRPGPPPGTGHPPSKRARGFSAAAAPDPDDPFGAHGDFTADDLEELDTLASQALSQCPAAARDVSSDHKVHRLLDGMSKNPSGKNRETVPIKDNFELEVLQAQYKELKEKMKVMEEEVLIKNGEIKILRDSLHQTESVLEEQRRSHFLLEQEKTQALSDKEKEFSKKLQSLQSELQFKDAEMNELRTKLQTSERANKLAAPSVSHVSPRKNPSVVIKPEACSPQFGKTSFPTKESFSANMSLPHPCQTESGYKPLVGREDSKPHSLRGDSIKQEEAQKSFVDSWRQRSNTQGSILINLLLKQPLIPGSSLSLCHLLSSSSESPAGTPLQPPGFGSTLAGMSGLRTTGSYDGSFSLSALREAQNLAFTGLNLVARNECSRDGDPAEGGRRAFPLCQLPGAVHFLPLVQFFIGLHCQALQDLAAAKRSGAPGDSPTHSSCVSSGVETNPEDSVCILEGFSVTALSILQHLVCHSGAVVSLLLSGVGADSAAGEGNRSLVHRLSDGDMTSALRGVADDQGQHPLLKMLLHLLAFSSAATGHLQASVLTQCLKVLVKLAENTSCDFLPRFQCVFQVLPKCLSPETPLPSVLLAVELLSLLADHDQLAPQLCSHSEGCLLLLLYMYITSRPDRVALETQWLQLEQEVVWLLAKLGVQSPLPPVTGSNCQCNVEVVRALTVMLHRQWLTVRRAGGPPRTDQQRRTVRCLRDTVLLLHGLSQKDKLFMMHCVEVLHQFDQVMPGVSMLIRGLPDVTDCEEAALDDLCAAETDVEDPEVECG
B7: RAD51C (protein, UniProt O43502 1-376)
chain: MRGKTFRFEMQRDLVSFPLSPAVRVKLVSAGFQTAEELLEVKPSELSKEVGISKAEALETLQIIRRECLTNKPRYAGTSESHKKCTALELLEQEHTQGFIITFCSALDDILGGGVPLMKTTEICGAPGVGKTQLCMQLAVDVQIPECFGGVAGEAVFIDTEGSFMVDRVVDLATACIQHLQLIAEKHKGEEHRKALEDFTLDNILSHIYYFRCRDYTELLAQVYLLPDFLSEHSKVRLVIVDGIAFPFRHDLDDLSLRTRLLNGLAQQMISLANNHRLAVILTNQMTTKIDRNQALLVPALGESWGHAATIRLIFHWDRKQRLATLYKSPSQKECTVLFQIKPQGFRDTVVTSACSLQTEGSLSTRKRSRDPEEEL

These molecules were tested against T1, FLAG-HA epitope-tagged XRCC2 (assay: affinity purification with mass spectrometry; FLAG-HA-tagged bait stably expressed in HeLa S3; sequential anti-FLAG (M2 agarose, FLAG peptide elution) and anti-HA (12CA5) immunoprecipitation from nuclear extract; washes in 100 mM KCl, 20 mM Tris-HCl pH 8.0, 5 mM MgCl2, 10% glycerol, 0.1% Tween-20; 4-20% gradient gel, gel sections by LC-MS).

| binding | Molecule |
| --- | --- |
| no binding | B1 |
| binds | B2 |

Each molecule was assayed against T2, FLAG-HA epitope-tagged HELQ (human) in the same assay as above.

| binding | Molecule |
| --- | --- |
| no binding | FANCD2 (from UniProt Q9BXW9 1-1451) |
| binds | B3 |
| no binding | B1 |
| binds | B4 |
| no binding | B5 |
| binds | B6 |
| binds | B7 |

These are yes or no findings as the source states them, for the method shown. In cells and extracts the contact can be indirect. Here binding means that the protein was enriched with, or labelled near, the bait; the list need not be complete. No binding means not detected with the bait. Sequences can lack the tags named with a protein.
